According to patent EP4660202A1:
Positions count from the first letter of the chain named. These are yes or no findings as the source states them, for the method shown. Some binding calls cover weakened binding; strength is not graded here.

B1: GTC210-01 clone (antibody, mouse IgG2a, V domains shown)
VH: EVQLLESGGGLVQPGGSLRLSCAASGFTFSGYDMSWVRQAPGKGLEWVSLIYPDSGNKYYADSVKGRFTISRDNSKNTLYLQMNSLRAEDTAVYYCARDAGLSWAGAFDYWGQGTLVTVSS
VL: QSVLTQPPSASGTPGQRVTISCSGSSSNIGSNYVTWYQQLPGTAPKLLIYSDSHRPSGVPDRFSGSKSGTSASLAISGLQSEDEADYYCGSWDYSLSAYVFGGGTKLTVLR
B2: GTC210-02 clone (antibody, mouse IgG2a, V domains shown)
VH: EVQLLESGGGLVQPGGSLRLSCAASGFTFSNYYMSWVRQAPGKGLEWVSGISPGDSSTYYADSVKGRFTISRDNSKNTLYLQMNSLRAEDTAVYYCAKGLYSNPNEPFDYWGQGTLVTVSS
VL: B1 VL with S23T, T35S, S51D, H54Q, Q80R, S91T, S97N, A98G
B3: GTC210-03 clone (antibody, mouse IgG2a, V domains shown)
VH: EVQLLESGGGLVQPGGSLRLSCAASGFTFSSYDMSWVRQAPGKGLEWVSGISPDGSNIYYADSVKGRFTISRDNSKNTLYLQMNSLRAEDTAVYYCAKVGLRCRYEACSYAYGMDVWGQGTLVTVSS
VL: B1 VL with T35S, Q80R, G90A, S91T, Y94S, S97N, A98G
B4: GTC210-04 clone (antibody, mouse IgG2a, V domains shown)
VH: EVQLLESGGGLVQPGGSLRLSCAASGFTFSNYDMSWVRQAPGKGLEWVSSISPSSGSIYYADSVKGRFTISRDNSKNTLYLQMNSLRAEDTAVYYCAKDLDAFWRPSFDYWGQGTLVTVSS
VL: B1 VL with S23T, S31N, Y33N, T35N, Q80R, Y94D
B5: GTC110-02 clone (antibody, mouse IgG2a, V domains shown)
VH: EVQLLESGGGLVQPGGSLRLSCAASGFTFSDYYMSWVRQAPGKGLEWVSGISHDSGSKYYADSVKGRFTISRDNSKNTLYLQMNSLRAEDTAVYYCARHWTTFDYWGQGTLVTVSS
VL: B1 VL with Y33N, S51A, D52N, H54N, Q80R, S91A
B6: GTC110-03 clone (antibody, mouse IgG2a, V domains shown)
VH: EVQLLESGGGLVQPGGSLRLSCAASGFTFSNYAMSWVRQAPGKGLEWVSAIYPGGGSIYYADSVKGRFTISRDNSKNTLYLQMNSLRAEDTAVYYCARDILPCPWGRCYYDYAMDVWGQGTLVTVSS
VL: B1 VL with G24D, Y33T, T35S, S51A, S53N, H54N, Q80R, S91T, A98G

These binders were tested against T1, Lrig-1 protein present on the surface of L cells (human-derived Lrig-1 protein) (human) (UniProt Q96JA1) (assay: FACS on L cells stably expressing Lrig-1, eFlour 670-conjugated secondary antibody).
T1 sequence: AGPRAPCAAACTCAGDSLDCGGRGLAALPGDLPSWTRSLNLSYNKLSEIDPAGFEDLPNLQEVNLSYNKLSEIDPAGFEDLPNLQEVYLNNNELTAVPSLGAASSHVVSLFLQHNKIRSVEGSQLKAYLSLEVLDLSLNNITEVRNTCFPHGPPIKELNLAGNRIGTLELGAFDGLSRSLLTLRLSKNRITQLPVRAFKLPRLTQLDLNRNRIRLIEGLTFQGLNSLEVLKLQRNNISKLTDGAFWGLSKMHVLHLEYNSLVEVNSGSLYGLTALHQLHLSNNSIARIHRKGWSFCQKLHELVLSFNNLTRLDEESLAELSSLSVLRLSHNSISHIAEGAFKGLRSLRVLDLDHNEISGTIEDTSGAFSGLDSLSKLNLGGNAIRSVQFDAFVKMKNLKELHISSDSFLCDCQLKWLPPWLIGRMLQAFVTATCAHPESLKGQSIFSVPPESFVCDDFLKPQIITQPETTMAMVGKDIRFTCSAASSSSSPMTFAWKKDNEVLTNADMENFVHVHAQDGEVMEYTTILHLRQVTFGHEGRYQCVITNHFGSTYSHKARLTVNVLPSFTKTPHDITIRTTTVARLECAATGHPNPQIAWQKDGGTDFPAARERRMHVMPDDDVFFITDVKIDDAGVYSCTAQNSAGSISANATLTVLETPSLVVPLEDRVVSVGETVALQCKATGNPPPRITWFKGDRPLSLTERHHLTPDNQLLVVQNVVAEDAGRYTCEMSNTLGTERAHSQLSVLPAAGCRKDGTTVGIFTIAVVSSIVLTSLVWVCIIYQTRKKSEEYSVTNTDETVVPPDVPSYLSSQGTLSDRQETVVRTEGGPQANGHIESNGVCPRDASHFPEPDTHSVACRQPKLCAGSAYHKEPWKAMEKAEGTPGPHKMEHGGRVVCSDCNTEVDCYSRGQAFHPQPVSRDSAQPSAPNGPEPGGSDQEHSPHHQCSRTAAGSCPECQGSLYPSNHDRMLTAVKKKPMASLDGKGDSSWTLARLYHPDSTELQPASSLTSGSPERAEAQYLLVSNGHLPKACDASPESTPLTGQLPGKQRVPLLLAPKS

binding, binds:
B1
B2
B3
B4
B5
B6
